Source: paper PMC3527473, “The C-Terminus of ClpC1 of Mycobacterium tuberculosis Is Crucial for Its Oligomerization and Function” (PLoS ONE, 2012)
Results are given in words; binding and its absence hold for the method and conditions named.

Sequences of proteins named here, by UniProt entry; tags and fusion partners are left off.
UniProt P9WPC9: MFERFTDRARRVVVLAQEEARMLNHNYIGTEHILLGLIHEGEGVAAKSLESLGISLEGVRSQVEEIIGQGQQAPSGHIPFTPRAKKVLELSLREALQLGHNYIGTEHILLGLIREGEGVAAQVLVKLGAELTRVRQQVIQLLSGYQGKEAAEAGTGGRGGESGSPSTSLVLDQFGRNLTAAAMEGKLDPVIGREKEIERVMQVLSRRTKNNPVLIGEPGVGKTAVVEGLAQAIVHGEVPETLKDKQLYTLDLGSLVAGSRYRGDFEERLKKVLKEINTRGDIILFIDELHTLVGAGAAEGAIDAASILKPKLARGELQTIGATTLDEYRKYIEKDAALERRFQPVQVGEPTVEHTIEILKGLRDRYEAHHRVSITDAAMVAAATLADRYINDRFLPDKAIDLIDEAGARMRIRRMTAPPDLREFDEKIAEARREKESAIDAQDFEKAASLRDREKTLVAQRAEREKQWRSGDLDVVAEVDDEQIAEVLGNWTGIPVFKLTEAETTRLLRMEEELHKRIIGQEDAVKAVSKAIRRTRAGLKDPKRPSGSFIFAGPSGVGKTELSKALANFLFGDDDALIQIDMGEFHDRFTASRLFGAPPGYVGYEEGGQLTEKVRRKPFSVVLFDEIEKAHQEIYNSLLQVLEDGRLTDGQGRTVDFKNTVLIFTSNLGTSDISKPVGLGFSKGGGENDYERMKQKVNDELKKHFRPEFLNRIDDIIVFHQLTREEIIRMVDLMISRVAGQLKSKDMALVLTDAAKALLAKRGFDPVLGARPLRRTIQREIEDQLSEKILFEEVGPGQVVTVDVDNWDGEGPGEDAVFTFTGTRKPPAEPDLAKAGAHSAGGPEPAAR

Target: Mycobacterium tuberculosis ClpC1, wild type (Mycobacterium tuberculosis H37Rv) (UniProt P9WPC9)
Experiment: SEC; Superdex-200 (1×30 cm) in buffer A (50 mM Tris-HCl pH 7.6, 100 mM KCl, 5 mM DTT, 10% glycerol, 0.01% Triton X-100), in the absence of ATP and MgCl2; fractions checked by SDS-PAGE; both purified

Mycobacterium tuberculosis ClpC1, wild type (from UniProt P9WPC9 1-848)
binding: no binding (condition: in the absence of ATP)
